These are yes or no findings as the source states them, for the method shown. In cells and extracts the contact can be indirect. A result given as binding can be weak or reduced; the word gives no strength.

Test [1] addresses T1, calcium- and integrin-binding protein 1 (CIB1) (human (endogenous in platelets)) (UniProt Q99828).
T1 sequence: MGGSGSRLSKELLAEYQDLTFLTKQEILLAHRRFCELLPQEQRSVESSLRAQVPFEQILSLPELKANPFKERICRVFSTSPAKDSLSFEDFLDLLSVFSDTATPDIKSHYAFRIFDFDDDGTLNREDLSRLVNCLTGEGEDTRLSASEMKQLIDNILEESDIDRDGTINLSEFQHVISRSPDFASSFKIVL
As to the kind of experiment: co-IP; anti-CIB1 immunoprecipitates of lysates of human platelets incorporated (DMSO method) with αIIb peptide (2.5 μM), scrambled peptide, anti-CIB1 or cIgG and spread on Fg; the pairs that are blocked.

Test [2] deals with T1, calcium- and integrin-binding protein 1 (CIB1) (human (endogenous in platelets)). Briefly: co-IP; anti-CIB1 immunoprecipitates (overnight 4°C, protein G-Sepharose) of pre-cleared 1% Nonidet P-40 lysates of washed human platelets exposed to BSA or immobilized Fg for ~45 min; blots for αIIb, FAK, c-Src; treatments: DMSO, BAPTA-AM (50 μM), cytochalasin D after adhesion.

Turning to “integrin αIIb subunit of αIIbβ3 (human (endogenous in platelets)) (receptor)”, the binding entry in test [1] and in test [2] was “binds” throughout.

Source of the values: PMC5443481, “Binding of CIB1 to the αIIb tail of αIIbβ3 is required for FAK recruitment and activation in platelets” (PLoS ONE, 2017).
